This assay addresses DsRed-caveolin (DsRed1-cav-1) (UniProt Q03135). Nature of the assay: condition: only unstimulated cells (no Ca2+ ionophore, TPA or bradykinin); FRET or BRET; 2P-FLIM-FRET: lifetime of the GFP donor (two-photon excitation at 850 nm, TCSPC); CHO cells co-expressing GFP-PKC and DsRed-cav, untreated (unstimulated), fixed in 3.7% formaldehyde and mounted. On the technique in general: BRET reads energy transfer from a luciferase to a nearby fluorophore.

The chains behind the UniProt entries cited, without tags or fusion partners.
UniProt Q03135: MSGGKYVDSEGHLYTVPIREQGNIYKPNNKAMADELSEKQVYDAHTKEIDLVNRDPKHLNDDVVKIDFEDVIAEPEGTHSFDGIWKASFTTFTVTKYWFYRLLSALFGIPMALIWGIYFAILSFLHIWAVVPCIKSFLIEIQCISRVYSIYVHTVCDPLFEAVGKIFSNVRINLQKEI

Results are given in words; binding and its absence hold for the method and conditions named. Binding seen in cells or lysates may run through a third protein.

Regarding “GFP-tagged protein kinase C alpha (PKCα) (from UniProt P17252 1-672) (enzyme)”, the binding result was “no binding”.
